Data taken from ChEMBL document CHEMBL3988442, “University of Dundee, Small-Polar-MMV Screening Library” (2021).

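Assay of Toxoplasma gondii numbers, read through their beta-galactosidase reporter with a colour substrate. Compounds at 50 µM. The record gives no direction; the compounds picked for IC50 retests had high values, so higher reads as fewer parasites. Of about 18,000 compounds tested this way, about 170 (0.94%) reached 50% or more in at least one test.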

Each number is a percent effect as filed.
How 0% and 100% were set is not recorded. Most values in the screen are low, and negative values occur.
This is an unselected part of the compounds tested.

| structure | Percent Effect |
|---|---|
| `NC(=O)C1CCN(CCCNCc2ccc(Cl)s2)CC1` | 23.1 |
| `Cc1cc(C)c2cc(C(=O)NCCO)[nH]c2c1` | 1.255 |
| `Cn1cc(CCC(=O)N2C[C@H](C3CC3)[C@@H](N)C2)cn1` | 1.096 |
| `C[C@@H]1CN(C(=O)CCc2ccnn2C)C[C@H](C)O1` | -1.462 |
| `Cc1cc(C(=O)Nc2ccc3c(c2)CC(=O)N3)c(C)o1` | 62.73 |
| `O=C(CCc1nc(-c2ccncc2)no1)NC1CC1` | -23.94 |
| `NCc1ccc(S(=O)(=O)N2CCOCC2)cc1` | 7.945 |
| `CCc1cnc(NCCN2CCC(O)CC2)nc1` | 22.96 |
| `NC(=O)CO[C@H]1CCOC[C@H]1NC(=O)c1ccc(Cl)o1` | 38.93 |
| `CN(C)C(=O)CS(=O)(=O)Cc1ccccc1C(F)(F)F` | -17.39 |
| `COC(=O)c1cc(S(=O)(=O)N2CCOCC2)cn1C` | 18.61 |
| `COCc1nc(C(=O)NC2CCN(C)C2=O)cs1` (centres undefined) | -4.025 |
| `CCn1cnnc1CNC(=O)N1CCCN(C)CC1` | 0.7642 |
| `CCc1nsc(N2CCN(CCO)C(=O)C2)n1` | -8.693 |
| `COCCOc1ccc(C#N)cn1` | 2.56 |
| `OCCCSCCNc1ncnc2sccc12` | -2.785 |
| `COCC1(N(C)CCC(=O)Nc2cccnc2)CC1` | -7.361 |
| `OCCOCCSc1n[nH]c(-c2cc(F)cc(F)c2)n1` | 4.085 |
| `O=C(NCCCN1CCCC1)Nc1ccccc1` | 2.05 |
| `Cc1ccc(C(=O)N2CCSC2)cc1` | -8.411 |
| `O=C(COC(=O)c1cccs1)NCc1ccco1` | -7.331 |
| `c1ccc2[nH]c(NCC3CCCO3)nc2c1` (centres undefined) | -43.04 |
| `Cc1cc(C)nc(NC(=O)NCC(=O)N(C)C)c1` | 7.709 |
| `Cc1c[nH]c(C(=O)N2CCCC[C@H](N(C)C)C2)n1` | 8.738 |
| `O=S(=O)(Nc1cccnc1O)c1ccccc1Cl` | 23.03 |
| `N#Cc1ccc(N2CCOC2=O)nc1` | 0.2325 |
| `CNC(=O)CCCNCc1c(C)nn(C)c1OC` | 4.085 |
| `CS(=O)(=O)N1CCC[C@H]1C(=O)NCCSc1cnn[nH]1` | -18.78 |
| `Cc1ncsc1C(=O)N1CCOc2cccc(F)c2C1` | 0.7704 |
| `O=S(=O)(N1CCCCCC1)N1CCNCC1` | -6.593 |
| `O=S(=O)(N1CCOCC1)N1CCCC(C(F)(F)F)C1` (centres undefined) | -0.1951 |
| `N#Cc1ccc(NC(=O)N2CCCC(O)C2)cc1` (centres undefined) | 0.2509 |
| `CC(C)(C)NC(=O)CNc1ncc(C#N)cc1Cl` | 5.884 |
| `CC(N)c1nc(-c2ccc(Br)cc2)c[nH]1` (centres undefined) | 13.07 |
| `CSCC(CCO)NC(=O)c1c(C)cccc1C` (centres undefined) | -4.493 |
| `OC(CN1CCn2ccnc2C1)c1ccc(Cl)cc1` (centres undefined) | 19.74 |
| `O=c1[nH]ccnc1N1CCCC(O)C1` (centres undefined) | -4.089 |
| `CN(C)CC1CCN(CC(=O)NCC2CCCO2)CC1` (centres undefined) | -4.023 |
| `CN(C)CCNC(=O)c1cc2ccccc2o1` | -5.341 |
| `CCn1cnnc1SC` | -15.3 |
| `COCc1ccc(C(=O)NCc2cccc(F)c2)o1` | 7.618 |
| `CC(C)Cn1cc(NC(=O)N2CCC(O)C2)cn1` (centres undefined) | 99.23 |
| `Cc1cc(N2CCNCC2)n[nH]1` | -6.113 |
| `CNS(=O)(=O)c1ccc(C(=O)N2CCOCC2)o1` | -12.28 |
| `CCC(=O)Nc1cccc(C(=O)Nc2cc(C)on2)c1` | 0.3815 |
| `COC(C)C(=O)NCCN(C)C(C)C` (centres undefined) | 27.88 |
| `COCCn1ccnc1CN1CCC(CCO)CC1` | 0.9766 |
| `O=S(=O)(CCNCc1cccnc1)N1CCCC1` | -8.217 |
| `Cc1cccc2c1N(C(=O)CCc1nnc[nH]1)CC2` | 24.12 |
| `NC(=O)CC(NCc1ccc(Br)o1)C1CCOCC1` (centres undefined) | 3.896 |
| `c1nc2c([nH]1)C1(CCOCC1)NCC2` | -7.737 |
| `c1cncc(CNCCc2nnc3ccccn23)c1` | 9.404 |
| `Cc1n[nH]c(SCCNC(=O)COCC2CCCO2)n1` (centres undefined) | 6.35 |
| `O=C(NCCN1CCOCC1)c1cc(C2CC2)[nH]n1` | -23.03 |
| `CN(C)C(=O)c1ccc2ncnc(N3CCCC3)c2c1` | -3.186 |
| `Cc1ccc(OCC(=O)Nc2nnn(C)n2)cc1` | 7.578 |
| `CCc1ccccc1S(=O)(=O)N(C)C(C)CN` (centres undefined) | -8.651 |
| `NS(=O)(=O)N1CCCNCC1` | -11.98 |
| `CN(Cc1ccncc1)S(=O)(=O)c1ccc(C#N)cc1` | -8.771 |
| `CCN(C)C(C)(C)C(=O)Nc1ncccc1O` | -5.325 |
| `CC1(C)CN(C(=O)c2cccnc2)CC2(CCCC2)O1` | 7.539 |
| `O=C(c1ccc(Cl)s1)N1CCN(c2nc[nH]n2)CC1` | 7.202 |
| `N#CCCn1ncc2c(NCc3cccs3)ncnc21` | 2.354 |
| `CCC(N)c1ccccc1OCC(=O)N(C)C` (centres undefined) | -2.206 |
| `CN1C[C@@H]2CN(Cc3ccc(N(C)C)nc3)C[C@@H]2C1` | 0.5759 |
| `Cc1cc(F)ccc1S(=O)(=O)N1C[C@H](C2CC2)[C@@H](N)C1` | 8.476 |
| `Cn1ccc(NC(=O)c2ccnn2C)n1` | -9.052 |
| `O=C1CCOCCN1Cc1noc(-c2ccccc2)n1` | 5.324 |
| `CN1CCCC(NC(=O)c2cc3c([nH]c2=O)CCC3)C1` (centres undefined) | -9.493 |
| `C=C(C)CN1CCC(NC(=O)N2CCSCC2)CC1` | 3.229 |
| `Cc1cnc(C(=O)Nc2ncccc2O)cn1` | -11.68 |
| `O=C(Nc1nnc2n1CCCC2)c1ccncc1` | 13.3 |
| `OC1(C2CCCCC2)CCNCC1` | 0.8115 |
| `CO[C@@H]1COCC[C@H]1NC(=O)c1ccc(C#N)nc1` | -6.883 |
| `COCc1nc(CCNC(=O)Cc2cccnc2)no1` | -8.331 |
| `Nc1cc(-c2cccnc2)on1` | -0.8399 |
| `Cc1ccc([C@@H](C)O)cc1` | 1.091 |
| `CNC(=O)C1CCCN1C(=O)C(C)(C)C` (centres undefined) | -0.2744 |
| `Cc1cc(C(=O)N2CCN[C@H](C)C2)n[nH]1` | -4.713 |
| `CC(C)(C#N)C(=O)Nc1ccc2c(c1)NC(=O)CO2` | 0.6458 |
| `CC(C)NC(=O)CN1CCCN(c2ccccn2)CC1` | 0.621 |
| `COc1cc(NC(=O)c2cncc(Br)c2)ncn1` | 0.3724 |
| `NC(=O)OCC(N)Cc1ccccc1` (centres undefined) | -4.897 |
| `CCCC1CCN(CC(=O)NCc2cccnc2)C1` (centres undefined) | 3.024 |
| `Cc1ccc2c(n1)OCCN2C(=O)C1CCOCC1` | -8.63 |
| `c1coc(C2CNCCO2)c1` (centres undefined) | -6.884 |

For reference, 9 entries once more:

With CS(=O)(=O)N1CCC[C@H]1C(=O)NCCSc1cnn[nH]1 the screen gave -18.78%.
With CCc1nsc(N2CCN(CCO)C(=O)C2)n1 the screen gave -8.693%.
With COCc1ccc(C(=O)NCc2cccc(F)c2)o1 the screen gave 7.618%.
With CN1C[C@@H]2CN(Cc3ccc(N(C)C)nc3)C[C@@H]2C1 the screen gave 0.5759%.
With CC(N)c1nc(-c2ccc(Br)cc2)c[nH]1 (centres undefined) the screen gave 13.07%.
With OCCOCCSc1n[nH]c(-c2cc(F)cc(F)c2)n1 the screen gave 4.085%.
With CNC(=O)C1CCCN1C(=O)C(C)(C)C (centres undefined) the screen gave -0.2744%.
With c1ccc2[nH]c(NCC3CCCO3)nc2c1 (centres undefined) the screen gave -43.04%.
With CCC(N)c1ccccc1OCC(=O)N(C)C (centres undefined) the screen gave -2.206%.